In PMC5183628:

Molecular target: T1, C-terminal non-photoactive region of rice PHYB (rice (Oryza sativa)) (UniProt Q10MG9)
T1 sequence: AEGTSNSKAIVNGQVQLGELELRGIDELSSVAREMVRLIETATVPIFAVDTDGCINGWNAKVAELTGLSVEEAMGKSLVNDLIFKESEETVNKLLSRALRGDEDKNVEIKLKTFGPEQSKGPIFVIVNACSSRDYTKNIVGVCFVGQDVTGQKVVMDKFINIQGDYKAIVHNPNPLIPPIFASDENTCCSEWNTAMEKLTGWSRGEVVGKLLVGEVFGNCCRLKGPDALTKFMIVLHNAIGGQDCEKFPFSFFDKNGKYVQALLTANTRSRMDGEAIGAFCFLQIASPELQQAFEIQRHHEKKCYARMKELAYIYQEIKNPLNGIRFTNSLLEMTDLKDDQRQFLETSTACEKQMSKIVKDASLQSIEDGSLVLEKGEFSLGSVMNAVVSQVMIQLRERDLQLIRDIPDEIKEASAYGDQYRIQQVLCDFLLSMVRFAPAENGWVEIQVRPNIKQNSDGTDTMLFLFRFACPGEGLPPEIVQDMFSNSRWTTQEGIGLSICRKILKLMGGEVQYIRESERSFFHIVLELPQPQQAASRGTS
Experiment: two-hybrid; GAL4 system in yeast strain AH109; bait: C-terminal region of PHYB in pGBKT7; prey: OsPIL16 in pGADT7; growth on SD -Leu -Trp -His with 20 mM 3-AT; three independent clones for each sample

OsPIL16 (rice phytochrome-interacting factor-like protein 16)
binding: binds

Results are given in words; binding and its absence hold for the method and conditions named. A result given as binding can be weak or reduced; the word gives no strength.
